# Screening data, single-dose tests

Results are given as percent effect.
The record does not define 0% and 100%; most values in the screen are far below 50% and negative numbers occur (in some assays of this library far below -100).
Compounds were drawn at random from those tested, without regard to their results.

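Whole-cell growth test on Mycobacterium tuberculosis, read after 4 days in a medium based on cholesterol and the lipid DPPC; the read-out is not stated. Concentration: 500 µM. Direction is inferred from retests: higher values go with more growth inhibition. About 18,000 compounds were tested under these conditions; 5% (about 900) showed 50% or more at least once.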

CSCCN1CCN(C(=O)c2ccc(O)c(Cl)c2)CC1 read 7.95%. Result for CN(C)c1ccc(C(=O)NC[C@@H]2CCCO2)cn1 was 12.27%. With NCC1(O)CCN(Cc2ccccc2)CC1 the screen gave -16.77%. With CCCNC(=O)NCCc1noc(-c2cccnc2)n1 the screen gave 5.047%.

For O=S1(=O)CCN2CCNCC2C1 (centres unmarked) the result was 5.02%. CC(C)(C)OC(=O)CN(CCCO)Cc1cccnc1 gave 20.43%. O=C(C1CCC1)N1CCN(S(=O)(=O)c2cccs2)CC1 read -8.979%. CN(C)c1ccc(CNS(C)(=O)=O)cc1 gave 6.177%.

c1ccc(-n2nnnc2CN2CCNCC2)cc1 gave -1.715%. With Cc1nn(CCO)c(C)c1CNC1CCCCNC1=O (centres unmarked) the screen gave -10.28%. O=C(Cc1cccnc1)NCCn1cc(Cl)cn1 gave -1.639%. With CC(=O)N1CCC[C@H]1C(=O)Nc1ccncc1F the screen gave 8.325%.

Result for Cc1nccc(C2(N)CC2)n1 was 1.194%. With O=C(CC1(O)CCCCC1)NCCNC(=O)C1CC1 the screen gave -2.36%. Result for O=C1NC(=O)c2cc(F)c(F)cc21 was -1.802%. With CCc1noc(C)c1C(=O)N(C)CC1(C)CCN(C)C1 (centres unmarked) the screen gave -9.42%.

Result for CN1CCC(NC(=O)c2nn(C)cc2N)CC1 was 0.27%. With O=C(c1ccon1)N(Cc1cccs1)CC1CCCO1 (centres unmarked) the screen gave 18.61%. Result for COCCC(=O)Nc1ccc(OCC(F)(F)F)nc1 was 25.77%. With O=C1CCc2cc(NC3CCS(=O)(=O)CC3)ccc2N1 the screen gave -5.914%.

CC1CN=C(N2CCN(CCc3ccccn3)CC2)S1 (centres unmarked) read 23.43%. CN(C)C(=O)c1cc(-c2cccs2)on1 read 61.09%. O=C(CC1C=CCC1)NCCNc1cnccn1 (centres unmarked) gave -7.864%. CCSc1nnc(-c2nonc2NC(C)=O)n1CC read 4.039%.

CSCc1ccc(C(=O)NC(C)c2nc(C)c[nH]2)o1 (centres unmarked) read 9.296%. With COC(=O)C1CN(Cc2ccncc2Cl)CCO1 (centres unmarked) the screen gave -14.48%. With c1ccc(CN2CCCN(CC3CCOC3)CC2)nc1 (centres unmarked) the screen gave 0.5837%. CCC(=O)c1ccc(CN)cc1 gave 53.14%.

2 of the entries, repeated:

{"compound": "CN1CCC(NC(=O)c2nn(C)cc2N)CC1", "percent effect": 0.27}
{"compound": "COC(=O)C1CN(Cc2ccncc2Cl)CCO1", "stereo": "centres unmarked", "percent effect": -14.48}

The values are deposited in ChEMBL (CHEMBL3988442, “University of Dundee, Small-Polar-MMV Screening Library” (2021)).